This note sets out measurements from the supplement of paper PMC12819154, “High-throughput peptide-centric local stability assay extends protein–ligand identification to membrane proteins, tissues and bacteria” (Nature Structural & Molecular Biology, 2025).

Chains of the proteins cited; added tags and fusions are not shown. Lines headed by an entry give the natural chain unless they say otherwise; changes in a name come on top.
UniProt P33352: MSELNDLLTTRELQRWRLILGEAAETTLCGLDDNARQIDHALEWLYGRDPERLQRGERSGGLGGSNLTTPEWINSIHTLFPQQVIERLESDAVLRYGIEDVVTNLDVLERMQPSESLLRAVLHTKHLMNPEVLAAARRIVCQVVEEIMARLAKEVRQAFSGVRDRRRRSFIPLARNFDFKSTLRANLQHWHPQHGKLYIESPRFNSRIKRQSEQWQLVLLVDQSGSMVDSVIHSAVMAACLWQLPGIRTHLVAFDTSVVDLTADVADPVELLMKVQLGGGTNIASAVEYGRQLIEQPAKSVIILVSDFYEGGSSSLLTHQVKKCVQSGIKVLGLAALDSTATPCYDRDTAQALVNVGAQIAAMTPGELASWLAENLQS
UniProt P31474: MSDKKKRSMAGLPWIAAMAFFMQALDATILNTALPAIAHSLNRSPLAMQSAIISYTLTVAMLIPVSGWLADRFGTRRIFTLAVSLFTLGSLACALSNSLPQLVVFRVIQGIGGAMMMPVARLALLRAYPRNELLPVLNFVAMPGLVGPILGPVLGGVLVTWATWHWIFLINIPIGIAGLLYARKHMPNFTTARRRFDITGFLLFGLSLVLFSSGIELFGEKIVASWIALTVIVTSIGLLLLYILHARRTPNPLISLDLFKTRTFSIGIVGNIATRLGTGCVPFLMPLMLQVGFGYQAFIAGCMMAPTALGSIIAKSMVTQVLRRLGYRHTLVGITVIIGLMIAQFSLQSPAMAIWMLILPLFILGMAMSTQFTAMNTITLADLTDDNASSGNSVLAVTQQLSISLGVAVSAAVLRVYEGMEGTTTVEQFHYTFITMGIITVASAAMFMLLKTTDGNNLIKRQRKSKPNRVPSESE
UniProt P24255: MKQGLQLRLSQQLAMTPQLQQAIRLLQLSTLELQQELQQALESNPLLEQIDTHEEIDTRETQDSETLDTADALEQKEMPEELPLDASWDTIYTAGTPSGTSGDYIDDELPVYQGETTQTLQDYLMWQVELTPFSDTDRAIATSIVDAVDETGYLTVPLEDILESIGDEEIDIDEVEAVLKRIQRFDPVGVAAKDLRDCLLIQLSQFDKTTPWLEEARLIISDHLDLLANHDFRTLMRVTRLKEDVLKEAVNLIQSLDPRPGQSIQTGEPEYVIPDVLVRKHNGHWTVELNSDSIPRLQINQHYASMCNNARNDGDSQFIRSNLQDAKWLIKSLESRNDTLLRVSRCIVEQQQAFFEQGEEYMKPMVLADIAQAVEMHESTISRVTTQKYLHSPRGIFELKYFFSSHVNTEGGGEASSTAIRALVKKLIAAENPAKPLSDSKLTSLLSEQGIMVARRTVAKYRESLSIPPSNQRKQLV

This is one part of the list. Small differences around the control level are noise.

Compound in the assay: CC1(C)S[C@@H]2[C@H](NC(=O)[C@H](N)c3ccccc3)C(=O)N2[C@H]1C(=O)O [ampicillin]
As to the kind of experiment: log2 fold change of tryptic peptide abundance, ligand vs vehicle (limited proteolysis) (log2 ratio); higher = more trypsin-susceptible (destabilized). The note with it: ligand concentration: 10 uM; sample: E. coli crude lysate.
Regarding “UniProt P33352 (peptide sequence: LYIESPR, peptide start residue: 197)”, the log2 fold change is 0.0872.
With “UniProt P31474 (peptide sequence: SKPNRVPSESE, peptide start residue: 465)” the figure was 0.124.
With “UniProt P24255 (peptide sequence: YRESLSIPPSNQR, peptide start residue: 461)” the figure was -0.328.
